Results: publication doi:10.1101/359117
These are yes or no findings as the source states them, for the method shown. A result given as binding can be weak or reduced; the word gives no strength.

Target: SseK3 (Salmonella Typhimurium SL1344), expressed from pGBKT7-SseK3 (Salmonella Typhimurium SL1344)
Experiment: two-hybrid

Row | Substance | binding
1 | death domain of human TRAILR2, expressed from pGADT7-hTRAILR2 DD (from UniProt O14763 339-422) (domain or fragment) | no binding
2 | death domain of human TNFR1, expressed from pGADT7-hTNFR1 DD (from UniProt P19438 356-441) (domain or fragment) | binds
